The values that follow come from PMC3708844 (2013).

No constants are given. Whether binding was seen depends on the method and setting. A result given as binding can be weak or reduced; the word gives no strength. Tags and fused reporters may be left off the sequences shown.

The target in the assay is T1, FRY2/CPL1, full length, fused with the DNA binding domain (BD) (Arabidopsis thaliana) (UniProt Q5YDB6).
T1 sequence: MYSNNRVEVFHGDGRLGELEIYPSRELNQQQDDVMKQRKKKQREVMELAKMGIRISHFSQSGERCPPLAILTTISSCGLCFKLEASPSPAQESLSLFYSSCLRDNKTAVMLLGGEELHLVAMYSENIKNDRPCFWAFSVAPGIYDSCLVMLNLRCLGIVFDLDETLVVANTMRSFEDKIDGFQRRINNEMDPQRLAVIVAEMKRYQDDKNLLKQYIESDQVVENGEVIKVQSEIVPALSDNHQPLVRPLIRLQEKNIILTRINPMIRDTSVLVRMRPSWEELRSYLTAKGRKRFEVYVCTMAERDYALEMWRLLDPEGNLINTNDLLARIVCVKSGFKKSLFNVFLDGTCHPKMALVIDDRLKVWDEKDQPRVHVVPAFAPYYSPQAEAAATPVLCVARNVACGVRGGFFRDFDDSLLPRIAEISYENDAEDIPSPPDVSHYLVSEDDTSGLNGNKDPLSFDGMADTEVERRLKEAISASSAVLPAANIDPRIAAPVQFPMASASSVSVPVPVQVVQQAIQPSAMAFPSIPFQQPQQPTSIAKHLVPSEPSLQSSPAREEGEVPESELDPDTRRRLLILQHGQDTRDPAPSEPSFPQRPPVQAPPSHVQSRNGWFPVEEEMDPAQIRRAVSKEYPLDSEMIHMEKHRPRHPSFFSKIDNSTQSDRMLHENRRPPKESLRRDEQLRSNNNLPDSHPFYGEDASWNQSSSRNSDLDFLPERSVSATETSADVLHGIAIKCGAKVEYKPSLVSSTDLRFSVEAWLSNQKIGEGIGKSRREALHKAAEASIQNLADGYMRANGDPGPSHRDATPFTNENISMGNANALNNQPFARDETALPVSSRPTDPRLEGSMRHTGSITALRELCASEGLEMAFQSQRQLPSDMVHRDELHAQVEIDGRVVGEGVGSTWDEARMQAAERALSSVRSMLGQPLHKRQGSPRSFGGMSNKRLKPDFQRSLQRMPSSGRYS
Nature of the assay: two-hybrid; directed tests and deletion analysis in Y190: SHI1 forms fused with the AD against full length FRY2-BD, FRY2 forms fused with the AD against full length SHI1-BD; growth on medium minus Trp, Leu and His with 3-AT and X-gal assay.

Consider “SHI1 first KH domain, fused with the activation domain (AD) (Arabidopsis thaliana) (domain or fragment)”, for which the binding entry was “binds”.

For “SHI1 third KH domain, fused with the activation domain (AD) (Arabidopsis thaliana) (domain or fragment)”, the binding result is on record as “binds”.
